Primary screen of a compound library

The values are deposited in ChEMBL (CHEMBL3988442, “University of Dundee, Small-Polar-MMV Screening Library” (2021)).

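Viability assay of Plasmodium falciparum sporozoites; the read-out is not stated. The concentration is filed as 10 mM, unlikely as a test dose, so the dose is not known. The record gives no direction; compounds that gave an IC50 in retests scored well above the rest, so higher reads as lower viability. Strong results were mostly tested again. Of about 34,000 compounds tested this way, about 280 (0.84%) reached 50% or more in at least one test.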

Values are the deposited “Percent Effect”, in %. The record does not define 0% and 100%; most values in the screen are far below 50% and negative numbers occur (in some assays of this library far below -100). This is an unselected part of the compounds tested. Two or more numbers in one place are separate tests of the same structure; such repeats can differ widely.

| # | structure | Percent Effect |
|---|---|---|
| 1 | `Cc1cc(C(=O)N2CCCC2)ccc1NCC(=O)N1CCOCC1` | 3.034 |
| 2 | `Cc1c(CC(=O)N2CCN(CC(F)(F)F)CC2)nnn1-c1ccccc1` | 6 and -2.71 and -7.634 |
| 3 | `O=S(=O)(N1CCCC1)N1CCCCC1CCc1ccccc1` (centres undefined) | 7.796 |
| 4 | `Cc1n[nH]c(C2CN(C(=O)c3ccon3)CCO2)n1` (centres undefined) | -9.104 and -16.07 |
| 5 | `NC(=O)c1nc2c(s1)CCN(C(=O)Nc1ccccc1)CC2` | 13.34 |
| 6 | `Cc1nc(CCC(N)=O)cc(C2CCCCN2S(C)(=O)=O)n1` (centres undefined) | -0.6975 |
| 7 | `CC(=O)N1CCN(C(=O)NCCc2ccc(Cl)s2)CC1` | 3.903 |
| 8 | `Cc1ccc2c(c1)nc1n2[C@@H](CNC(=O)c2cccnc2)COC1` | -8.768 and -5.531 |
| 9 | `CCN1CC2(CC1=O)CN(Cc1ccco1)CCN(C(=O)N(C)C)C2.O=C(O)C(F)(F)F` (centres undefined) | -4.584 |
| 10 | `Cc1ccc2c(c1)[C@@H](CC(=O)N(C)C)CCO2` | -2.286 |
| 11 | `COc1ncccc1NC(=O)N1CCC(CN2CCOCC2)CC1` | 1.717 |
| 12 | `O=C(O)C(F)(F)F.O=C(O)C(F)(F)F.[H][C@@]12CN(Cc3ccsc3)CCC[C@]1(C(=O)O)CN(CCOC)C2` | 7.933 |
| 13 | `COC(=O)c1ccc(S(=O)(=O)NCc2cccnc2N(C)C)cc1` | 1.891 |
| 14 | `O=C(Cn1cccnc1=O)NC(Cc1cccs1)c1ccccn1` (centres undefined) | -16.47 |
| 15 | `CNc1nc(C2CCCN(C(=O)C(C)(C)OC)C2)nc2c1CN(C)CC2` (centres undefined) | 7.884 |
| 16 | `CCC(=O)NC1CCN(c2cccc(OC(F)(F)F)c2)C1=O` (centres undefined) | -1.961 |
| 17 | `COCC(=O)N1CCOC(c2cccc(-c3cncnc3)n2)C1` (centres undefined) | 0.9327 |
| 18 | `CCOc1cc(C(=O)N2CCCC(n3cncn3)C2)ccc1C` (centres undefined) | -1.754 |
| 19 | `CN(C)C(=O)c1ccc2c(c1)N(C)C(CC(=O)NCCC(C)(C)C)CO2` (centres undefined) | -18.14 |
| 20 | `[H][C@@]12CCN(Cc3ccoc3)C[C@@]1([H])O[C@@H](c1ccnc(C(C)C)n1)C2` | -12.86 |
| 21 | `Cc1cnn(CCNc2nc(C)cc(N(C)C)n2)c1` | -8.735 |
| 22 | `O=C(NCc1cnn2cccnc12)C1CC2(CCNCC2)CN1` (centres undefined) | -12.77 |
| 23 | `Cc1cc(C)c(CNC(=O)NCC2Cc3ccccc32)c(=O)[nH]1` (centres undefined) | -0.6519 |
| 24 | `CN(C)CCC1CCN(Cc2ccn(C)c(=O)c2)CC1` | 2.431 |
| 25 | `COCCCN1CCC(NC(=O)C(C)C)CC1` | 3.648 |
| 26 | `Cc1cc(C)n(CCC(=O)N2CCCCC2c2nccs2)n1` (centres undefined) | -4.853 |
| 27 | `COCC(C)NS(=O)(=O)c1ccc(Br)cn1` (centres undefined) | 0.3337 |
| 28 | `COC(=O)c1ccccc1NC(=O)c1nc2ccccc2n(C)c1=O` | -10.84 |
| 29 | `CCOCCN1CCN(CC(=O)N2CCCC2)CC1CC` (centres undefined) | 9.433 |
| 30 | `COCCN1CCc2cc(C(=O)N(C)C)c(NCC3CC3)nc2CC1.O=C(O)C(F)(F)F.O=C(O)C(F)(F)F` | -3.23 |
| 31 | `Cc1ccc(C(=O)Nc2nc(C)no2)cc1` | -7.271 |
| 32 | `Cn1cc(CCNCc2cc(Br)c3c(c2)OCO3)cn1` | 14.76 |
| 33 | `O=C(O)C(F)(F)F.O=C(O)C(F)(F)F.O=C(O)C(F)(F)F.c1ccc(CO[C@@H]2CO[C@@]3(CCN(Cc4ccccn4)C3)C2)nc1` | -5.702 |
| 34 | `CCCN1CCC(c2nc3ccc(-c4cccc(OC)c4)cn3n2)CC1.O=C(O)C(F)(F)F` | 2.194 |
| 35 | `[H][C@@]12C[C@H](c3nc(C)no3)CN(Cc3ccncc3)[C@]1([H])CCO2` | 13.3 |
| 36 | `CN1CCN(CC2CC2)C(=O)c2cnc(N3CC[C@@H](O)C3)nc21` | 9.804 |
| 37 | `Cc1nc(CN(C)C(=O)CN(C)C)nc2c1CCC(=O)N2CCC(C)C` | 8.497 |
| 38 | `COc1ccc(CN2CCOCC3(CCN(C4CCOCC4)C3)C2)cc1.O=C(O)C(F)(F)F.O=C(O)C(F)(F)F` (centres undefined) | -2.676 |
| 39 | `CCOC(=O)Cc1cs/c(=N/C(=O)COc2cnc(C)cc2O)[nH]1` | -14.35 and -18.74 |
| 40 | `CC(=O)N1CCC2(CC1)CN(C(=O)c1cccnc1)c1ccc(F)cc12.O=C(O)C(F)(F)F` | 4.895 |
| 41 | `CCCn1nc2c(cc1=O)CN(Cc1nc(C)c(C)o1)CC2` | -7.271 |
| 42 | `Cc1cccc(CC2CCCN(C(=O)Cc3csc(C)n3)C2)n1` (centres undefined) | 11.64 |
| 43 | `O=C(CCn1cccc1)NCc1ccc(CN2CCCCCC2)o1` | 1.343 |
| 44 | `Cc1nccc(N2CCC(=O)N(Cc3ccc(F)cc3)C(C(C)C)C2)n1` (centres undefined) | -3.135 |
| 45 | `CCCS(=O)(=O)NC(C)C(=O)NCc1ccc(N2CCCC2)nc1` (centres undefined) | -1.12 |
| 46 | `O=C(C1CCN(c2cccnn2)C1)N1CCOCC1` (centres undefined) | 0.09363 |
| 47 | `COCc1nc(C(=O)N2CCCC(n3nc(C)cc3C)C2)cs1` (centres undefined) | 9.246 |
| 48 | `Cc1cc(OCC(=O)NC(C)c2ccc(N3CCOCC3)cc2)no1` (centres undefined) | -8.942 |
| 49 | `O=C(c1cccs1)N1CC[C@H](O)[C@@H]1Cc1ccccc1` | 10.47 |
| 50 | `O=C(COc1cccc2c1CCC2=O)NCCSc1ccccc1` | -7.103 |
| 51 | `CN(C)c1ncccc1CNC(=O)NCCN(C)C1CCCC1` | -19 |
| 52 | `CN(CC1(C)COC1)C(=O)c1cc(-c2cnn(C)c2)nc2ccccc12` | 2.914 |
| 53 | `CCN(CC1CN(Cc2ccn(C(C)C)n2)CCO1)c1cccnn1` (centres undefined) | -2.206 |
| 54 | `COCc1nc(CN2CC(=O)N(C)c3ccccc3C2=O)no1` | -17.42 |
| 55 | `Cc1cc(C)n(CC2CN(CC(=O)Nc3ccncc3)CCO2)n1` (centres undefined) | 4.229 |
| 56 | `N#Cc1cccc(CNC(=O)Nc2cccnc2N2CCCC2)c1` | -90.86 |
| 57 | `O=C(CCc1nccs1)N1CCN(c2ccc(Br)cn2)CC1` | -7.399 |
| 58 | `O=C(O)C(F)(F)F.[H][C@@]12COC[C@]1([H])[C@@H](OCc1csc(C)n1)CN2C(=O)c1cnoc1C` | 1.448 |
| 59 | `OC(COc1ccccc1)CN1CCN(c2nccs2)CC1` (centres undefined) | -13.24 |
| 60 | `O=C(c1cc[nH]n1)N1CCC(c2nccn2Cc2ccncc2)CC1` | 8.86 |
| 61 | `CNc1nccnc1C1CN(Cc2ccc(OCC(=O)O)cc2)CCO1` (centres undefined) | 0.2498 |
| 62 | `COCC(=O)N1CCC2(CC1)CN(c1cncnc1)C(=O)CO2` | 1.117 |
| 63 | `Cc1nc(C)n(CC2CCCN2CCC(=O)NC2CCCC2)n1` (centres undefined) | -5.037 |
| 64 | `CN(C1CCc2ccccc2C1)S(C)(=O)=O` (centres undefined) | -8.215 |
| 65 | `Cc1ccc(N2CCCN(C(=O)c3cccc4c3ccn4C)CC2)nn1` | 46.94 and 38.72 |
| 66 | `c1ccc(COc2cccc(CNC3CCc4ncnn4C3)c2)cc1` (centres undefined) | 12.34 |
| 67 | `CCC(C)N1CCc2c(C(=O)N3CCOCC3)n[nH]c2C1` (centres undefined) | 7.357 |
| 68 | `COCCN1CCC(CNC(=O)C2(c3ccc(F)cc3)CCC2)CC1` | -3.004 |
| 69 | `CC(CNC(=O)Nc1cn[nH]c1)N1CCCC1` (centres undefined) | 0.8503 |
| 70 | `Cc1ccc2c(n1)N(CCN(C)C)CCN(C(=O)c1ccoc1)C2.O=C(O)C(F)(F)F.O=C(O)C(F)(F)F` | 9.809 |
| 71 | `CC(C)N(Cc1cccnc1)C(=O)CNc1ccc(C#N)cc1` | -16.54 |
| 72 | `O=C(CCOc1ccccc1)N1CCCC(n2cncn2)C1` (centres undefined) | 4.982 |
| 73 | `Cc1cc(CN(C)C(=O)C2CCCN(C(=O)c3cccs3)C2)no1` (centres undefined) | 1.527 |
| 74 | `CCC(CC)CN1CCC2(CCCN(c3ncccn3)C2)C1` (centres undefined) | 10.77 |
| 75 | `C=Cc1ccc(CN2C(=O)C3(CCNCC3)Nc3ccccc32)cc1` | -13.99 and 26.32 and 26.67 |

The last 6 entries again:

structure,Percent Effect
Cc1ccc2c(n1)N(CCN(C)C)CCN(C(=O)c1ccoc1)C2.O=C(O)C(F)(F)F.O=C(O)C(F)(F)F,9.809
CC(C)N(Cc1cccnc1)C(=O)CNc1ccc(C#N)cc1,-16.54
O=C(CCOc1ccccc1)N1CCCC(n2cncn2)C1 (centres undefined),4.982
Cc1cc(CN(C)C(=O)C2CCCN(C(=O)c3cccs3)C2)no1 (centres undefined),1.527
CCC(CC)CN1CCC2(CCCN(c3ncccn3)C2)C1 (centres undefined),10.77
C=Cc1ccc(CN2C(=O)C3(CCNCC3)Nc3ccccc32)cc1,-13.99 and 26.32 and 26.67